# No constants are given. Whether binding was seen depends on the method and setting.
# B1: human TMEM87A (hTMEM87A), renamed Golgi-pH-regulating cation channel (GolpHCat) (protein, UniProt Q8NBN3-1 22-555)
# chain: SPLSFFSAGPATVAAADRSKWHIPIPSGKNYFSFGKILFRNTTIFLKFDGEPCDLSLNITWYLKSADCYNEIYNFKAEEVELYLEKLKEKRGLSGKYQTSSKLFQNCSELFKTQTFSGDFMHRLPLLGEKQEAKENGTNLTFIGDKTAMHEPLQTWQDAPYIFIVHIGISSSKESSKENSLSNLFTMTVEVKGPYEYLTLEDYPLMIFFMVMCIVYVLFGVLWLAWSACYWRDLLRIQFWIGAVIFLGMLEKAVFYAEFQNIRYKGESVQGALILAELLSAVKRSLARTLVIIVSLGYGIVKPRLGVTLHKVVVAGALYLLFSGMEGVLRVTGAQTDLASLAFIPLAFLDTALCWWIFISLTQTMKLLKLRRNIVKLSLYRHFTNTLILAVAASIVFIIWTTMKFRIVTCQSDWRELWVDDAIWRLLFSMILFVIMVLWRPSANNQRFAFSPLSEEEEEDEQKEPMLKESFEGMKMRSTKQEPNGNSKVNKAQEDDLKWVEENVPSSVTDVALPALLDSDEERMITHFERSKME
# modifications: N-linked oligosaccharides at N62, N79 and N127
# Target: human TMEM87A (hTMEM87A), renamed Golgi-pH-regulating cation channel (GolpHCat) (human) (UniProt Q8NBN3)
# Assay: cryo-EM structure; single-particle cryo-EM of purified hTMEM87A in detergent (LMNG/CHS), 50 mM Tris pH 9.0, 250 mM NaCl, ~0.8 mg/ml; overall resolution 3.1 Å; both purified
binder,measurement,value
B1,binding,no binding

# Reference: article PMC11239671, “GolpHCat (TMEM87A), a unique voltage-dependent cation channel in Golgi apparatus, contributes to Golgi-pH maintenance and hippocampus-dependent memory” (Nature Communications, 2024)
